{"sequences": {"note": "The chains behind the UniProt entries cited, without tags or fusion partners. Where a name states a change or a piece, a line headed by the entry shows the natural chain unless it says otherwise.", "UniProt P29144": "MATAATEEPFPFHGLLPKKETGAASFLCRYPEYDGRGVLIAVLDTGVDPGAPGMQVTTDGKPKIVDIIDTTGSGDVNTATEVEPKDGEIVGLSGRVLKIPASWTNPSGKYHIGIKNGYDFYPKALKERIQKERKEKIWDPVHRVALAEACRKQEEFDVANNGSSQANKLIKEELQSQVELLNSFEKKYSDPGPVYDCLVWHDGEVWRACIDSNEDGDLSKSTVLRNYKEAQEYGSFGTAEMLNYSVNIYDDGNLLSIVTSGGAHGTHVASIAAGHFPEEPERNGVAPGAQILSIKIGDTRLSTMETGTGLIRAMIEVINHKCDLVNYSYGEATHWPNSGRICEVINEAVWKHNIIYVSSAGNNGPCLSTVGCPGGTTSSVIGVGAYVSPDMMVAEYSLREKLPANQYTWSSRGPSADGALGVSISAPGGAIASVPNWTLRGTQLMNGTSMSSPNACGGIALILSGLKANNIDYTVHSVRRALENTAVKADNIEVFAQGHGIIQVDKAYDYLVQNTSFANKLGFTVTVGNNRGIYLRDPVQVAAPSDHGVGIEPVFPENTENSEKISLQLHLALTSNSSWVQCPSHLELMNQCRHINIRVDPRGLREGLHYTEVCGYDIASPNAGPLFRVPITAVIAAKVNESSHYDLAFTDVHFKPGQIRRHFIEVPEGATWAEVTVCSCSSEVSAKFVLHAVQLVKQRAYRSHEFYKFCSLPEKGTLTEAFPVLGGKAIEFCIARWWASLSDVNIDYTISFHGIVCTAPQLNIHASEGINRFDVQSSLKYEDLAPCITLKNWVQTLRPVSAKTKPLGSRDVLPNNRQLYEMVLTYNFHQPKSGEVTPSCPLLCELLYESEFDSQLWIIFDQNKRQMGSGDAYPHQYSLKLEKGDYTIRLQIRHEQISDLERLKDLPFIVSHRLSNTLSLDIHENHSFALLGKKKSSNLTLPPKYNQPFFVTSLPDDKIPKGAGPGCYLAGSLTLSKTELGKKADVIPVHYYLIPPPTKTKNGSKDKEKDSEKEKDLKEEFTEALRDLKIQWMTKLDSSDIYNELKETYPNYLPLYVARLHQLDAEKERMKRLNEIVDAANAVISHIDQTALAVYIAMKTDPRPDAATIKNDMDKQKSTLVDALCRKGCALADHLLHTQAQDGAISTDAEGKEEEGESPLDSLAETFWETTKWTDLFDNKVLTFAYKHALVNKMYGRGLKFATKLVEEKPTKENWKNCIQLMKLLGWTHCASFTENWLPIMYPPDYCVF", "UniProt Q9H2K8": "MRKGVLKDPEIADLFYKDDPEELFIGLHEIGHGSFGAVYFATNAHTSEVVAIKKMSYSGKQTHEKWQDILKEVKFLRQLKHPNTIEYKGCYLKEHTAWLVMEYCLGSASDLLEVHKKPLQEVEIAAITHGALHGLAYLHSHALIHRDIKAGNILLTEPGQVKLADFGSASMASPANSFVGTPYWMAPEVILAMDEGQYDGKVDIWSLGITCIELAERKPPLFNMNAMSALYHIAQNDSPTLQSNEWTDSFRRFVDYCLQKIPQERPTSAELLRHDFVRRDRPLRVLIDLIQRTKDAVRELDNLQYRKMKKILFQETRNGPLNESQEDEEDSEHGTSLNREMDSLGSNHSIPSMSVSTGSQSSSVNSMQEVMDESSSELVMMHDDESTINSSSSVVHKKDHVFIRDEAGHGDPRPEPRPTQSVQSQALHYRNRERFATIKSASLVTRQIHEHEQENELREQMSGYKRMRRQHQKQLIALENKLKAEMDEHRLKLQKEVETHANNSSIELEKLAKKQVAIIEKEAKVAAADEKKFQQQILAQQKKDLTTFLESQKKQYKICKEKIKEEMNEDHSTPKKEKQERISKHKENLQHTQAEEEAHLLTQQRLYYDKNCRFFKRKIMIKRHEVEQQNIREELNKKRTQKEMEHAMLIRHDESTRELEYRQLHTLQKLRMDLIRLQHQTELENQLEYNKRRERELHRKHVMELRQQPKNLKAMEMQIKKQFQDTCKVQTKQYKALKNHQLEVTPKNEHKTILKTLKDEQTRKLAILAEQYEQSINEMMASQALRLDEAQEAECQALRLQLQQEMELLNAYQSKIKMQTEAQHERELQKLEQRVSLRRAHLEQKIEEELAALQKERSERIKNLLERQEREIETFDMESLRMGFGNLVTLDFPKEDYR", "UniProt Q9UPQ9, whole entry": "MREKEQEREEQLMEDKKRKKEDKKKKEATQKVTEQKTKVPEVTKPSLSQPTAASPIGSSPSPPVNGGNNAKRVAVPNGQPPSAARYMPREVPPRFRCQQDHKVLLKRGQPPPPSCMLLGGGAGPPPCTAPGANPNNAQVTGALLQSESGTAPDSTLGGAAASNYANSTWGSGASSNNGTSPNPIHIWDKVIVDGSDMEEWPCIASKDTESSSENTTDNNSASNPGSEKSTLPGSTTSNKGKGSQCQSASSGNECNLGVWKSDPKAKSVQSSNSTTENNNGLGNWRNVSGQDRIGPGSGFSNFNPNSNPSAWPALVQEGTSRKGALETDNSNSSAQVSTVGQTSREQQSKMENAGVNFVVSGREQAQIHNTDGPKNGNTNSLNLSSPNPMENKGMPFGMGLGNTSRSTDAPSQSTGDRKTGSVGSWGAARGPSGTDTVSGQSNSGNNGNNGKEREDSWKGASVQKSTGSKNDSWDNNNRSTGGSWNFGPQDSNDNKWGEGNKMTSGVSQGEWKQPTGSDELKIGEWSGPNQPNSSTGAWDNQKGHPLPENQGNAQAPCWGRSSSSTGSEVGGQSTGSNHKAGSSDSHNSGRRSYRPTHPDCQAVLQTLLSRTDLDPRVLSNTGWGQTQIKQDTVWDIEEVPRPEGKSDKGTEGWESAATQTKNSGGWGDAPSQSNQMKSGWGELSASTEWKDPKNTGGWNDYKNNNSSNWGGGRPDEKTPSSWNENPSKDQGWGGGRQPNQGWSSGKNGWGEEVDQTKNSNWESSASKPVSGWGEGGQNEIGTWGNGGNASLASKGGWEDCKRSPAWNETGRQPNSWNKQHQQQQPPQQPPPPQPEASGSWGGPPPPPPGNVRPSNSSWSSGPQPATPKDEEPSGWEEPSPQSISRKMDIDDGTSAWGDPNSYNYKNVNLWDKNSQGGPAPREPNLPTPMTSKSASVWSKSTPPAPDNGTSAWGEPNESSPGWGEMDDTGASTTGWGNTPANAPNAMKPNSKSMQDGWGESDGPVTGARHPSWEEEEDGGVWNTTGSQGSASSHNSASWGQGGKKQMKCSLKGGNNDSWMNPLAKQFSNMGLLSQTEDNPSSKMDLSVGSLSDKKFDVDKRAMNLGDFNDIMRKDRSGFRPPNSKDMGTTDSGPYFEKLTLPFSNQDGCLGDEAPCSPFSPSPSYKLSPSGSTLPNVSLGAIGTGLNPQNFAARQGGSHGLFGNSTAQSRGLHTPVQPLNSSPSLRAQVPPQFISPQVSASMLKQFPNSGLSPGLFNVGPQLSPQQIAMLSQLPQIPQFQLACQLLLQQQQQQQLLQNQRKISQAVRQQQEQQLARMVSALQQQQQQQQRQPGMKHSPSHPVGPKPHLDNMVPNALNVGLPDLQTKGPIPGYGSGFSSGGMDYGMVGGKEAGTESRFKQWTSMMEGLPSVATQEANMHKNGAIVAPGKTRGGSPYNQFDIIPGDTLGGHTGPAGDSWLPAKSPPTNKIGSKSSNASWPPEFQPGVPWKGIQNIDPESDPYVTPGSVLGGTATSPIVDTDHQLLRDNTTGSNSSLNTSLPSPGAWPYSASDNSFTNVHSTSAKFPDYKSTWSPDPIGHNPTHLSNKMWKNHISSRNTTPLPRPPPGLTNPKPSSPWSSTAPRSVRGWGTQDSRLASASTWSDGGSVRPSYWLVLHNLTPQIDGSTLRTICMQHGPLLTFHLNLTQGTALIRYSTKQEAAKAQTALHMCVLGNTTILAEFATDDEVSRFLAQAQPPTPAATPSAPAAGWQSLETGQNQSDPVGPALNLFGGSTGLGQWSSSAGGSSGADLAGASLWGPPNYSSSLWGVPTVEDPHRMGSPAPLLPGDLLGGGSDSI", "UniProt A2RTX5": "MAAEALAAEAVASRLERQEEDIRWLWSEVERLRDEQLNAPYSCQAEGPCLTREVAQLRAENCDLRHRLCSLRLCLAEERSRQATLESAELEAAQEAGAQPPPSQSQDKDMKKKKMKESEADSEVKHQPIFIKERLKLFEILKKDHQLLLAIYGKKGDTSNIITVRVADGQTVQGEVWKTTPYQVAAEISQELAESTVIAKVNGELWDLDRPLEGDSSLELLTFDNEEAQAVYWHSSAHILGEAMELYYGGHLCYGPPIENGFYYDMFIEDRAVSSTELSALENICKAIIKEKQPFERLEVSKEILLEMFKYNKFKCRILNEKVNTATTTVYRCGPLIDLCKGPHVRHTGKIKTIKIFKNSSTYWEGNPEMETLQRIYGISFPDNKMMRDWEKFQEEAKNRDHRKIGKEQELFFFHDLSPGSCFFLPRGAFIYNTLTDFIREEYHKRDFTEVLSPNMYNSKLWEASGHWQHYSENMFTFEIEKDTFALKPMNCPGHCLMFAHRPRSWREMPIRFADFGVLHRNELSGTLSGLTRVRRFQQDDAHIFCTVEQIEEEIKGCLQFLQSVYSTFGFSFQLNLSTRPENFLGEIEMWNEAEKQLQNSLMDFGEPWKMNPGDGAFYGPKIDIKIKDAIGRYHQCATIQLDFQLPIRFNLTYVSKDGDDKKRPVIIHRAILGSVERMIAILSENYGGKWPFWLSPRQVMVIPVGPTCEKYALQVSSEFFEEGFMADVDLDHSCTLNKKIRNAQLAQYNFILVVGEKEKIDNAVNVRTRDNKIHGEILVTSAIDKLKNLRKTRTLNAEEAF", "UniProt Q92734, whole entry": "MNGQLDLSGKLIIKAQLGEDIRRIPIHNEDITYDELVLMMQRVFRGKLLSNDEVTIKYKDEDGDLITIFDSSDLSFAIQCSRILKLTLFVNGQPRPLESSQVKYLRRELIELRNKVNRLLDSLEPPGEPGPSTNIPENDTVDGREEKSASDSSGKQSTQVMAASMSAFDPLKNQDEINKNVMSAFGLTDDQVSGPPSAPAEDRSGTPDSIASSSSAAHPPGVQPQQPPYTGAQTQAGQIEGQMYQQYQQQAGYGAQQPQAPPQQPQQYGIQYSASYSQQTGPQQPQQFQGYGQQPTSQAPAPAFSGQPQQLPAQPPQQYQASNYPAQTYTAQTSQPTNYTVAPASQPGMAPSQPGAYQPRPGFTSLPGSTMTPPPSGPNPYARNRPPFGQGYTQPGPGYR", "UniProt P24557": "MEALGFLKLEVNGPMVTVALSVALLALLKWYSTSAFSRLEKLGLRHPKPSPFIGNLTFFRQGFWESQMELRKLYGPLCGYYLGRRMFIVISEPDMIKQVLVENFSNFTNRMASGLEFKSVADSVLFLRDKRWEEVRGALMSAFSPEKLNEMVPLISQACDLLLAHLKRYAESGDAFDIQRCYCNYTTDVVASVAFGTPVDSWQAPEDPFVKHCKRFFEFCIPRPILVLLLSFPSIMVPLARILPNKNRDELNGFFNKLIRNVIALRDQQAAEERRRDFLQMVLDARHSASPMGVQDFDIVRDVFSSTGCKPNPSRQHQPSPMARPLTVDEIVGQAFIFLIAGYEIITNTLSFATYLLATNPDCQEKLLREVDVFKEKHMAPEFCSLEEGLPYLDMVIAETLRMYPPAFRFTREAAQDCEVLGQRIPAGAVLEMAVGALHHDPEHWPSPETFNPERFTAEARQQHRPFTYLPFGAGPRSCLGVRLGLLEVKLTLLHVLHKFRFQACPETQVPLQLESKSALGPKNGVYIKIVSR", "UniProt Q9P0I2": "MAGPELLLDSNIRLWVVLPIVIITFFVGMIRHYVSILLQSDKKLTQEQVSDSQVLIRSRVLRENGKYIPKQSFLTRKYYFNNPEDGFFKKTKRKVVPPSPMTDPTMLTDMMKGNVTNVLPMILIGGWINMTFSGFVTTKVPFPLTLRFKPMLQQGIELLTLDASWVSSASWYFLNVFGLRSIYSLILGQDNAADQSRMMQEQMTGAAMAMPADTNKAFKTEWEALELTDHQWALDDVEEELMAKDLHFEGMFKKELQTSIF", "UniProt Q13445": "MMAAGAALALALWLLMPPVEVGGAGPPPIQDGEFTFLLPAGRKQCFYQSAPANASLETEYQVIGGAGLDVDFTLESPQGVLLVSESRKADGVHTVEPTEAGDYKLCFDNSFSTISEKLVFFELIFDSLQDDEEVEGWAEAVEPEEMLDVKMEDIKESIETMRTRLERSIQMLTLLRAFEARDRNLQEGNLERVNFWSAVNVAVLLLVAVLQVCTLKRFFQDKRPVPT", "UniProt Q7Z7C8, whole entry": "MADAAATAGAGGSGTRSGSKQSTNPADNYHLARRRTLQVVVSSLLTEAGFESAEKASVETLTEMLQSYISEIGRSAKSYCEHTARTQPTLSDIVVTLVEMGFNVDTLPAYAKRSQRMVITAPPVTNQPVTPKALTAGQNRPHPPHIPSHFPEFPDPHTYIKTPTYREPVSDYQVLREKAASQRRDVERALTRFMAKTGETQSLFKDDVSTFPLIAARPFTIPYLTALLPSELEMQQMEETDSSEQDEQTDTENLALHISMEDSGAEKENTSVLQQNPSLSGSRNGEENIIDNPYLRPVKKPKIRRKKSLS"}, "source": "the supplement of paper PMC7666118", "note": "The list shows a part of the results.", "data": [{"compound": "COc1ccc(Cn2ccc3ccc(C(=O)NO)cc32)cc1", "assay": "dose-dependent thermal stabilisation call (2D-TPP, DLPTP, 10% FDR) (binary (1 = stabilised)); higher = stabilised by the compound", "conditions": "system: HL-60 intact cells; concentration range 0.04-10 µM", "values": [{"target": "TMPO", "dose-dependent thermal stabilisation call": "inactive: 0"}, {"target": "TPP2 (UniProt P29144)", "dose-dependent thermal stabilisation call": "inactive: 0"}, {"target": "TBC1D22B (UniProt Q9NU19)", "dose-dependent thermal stabilisation call": "inactive: 0"}, {"target": "TAOK3 (UniProt Q9H2K8)", "dose-dependent thermal stabilisation call": "inactive: 0"}, {"target": "TLK2 (UniProt Q86UE8)", "dose-dependent thermal stabilisation call": "inactive: 0"}, {"target": "TNRC6B (UniProt Q9UPQ9)", "dose-dependent thermal stabilisation call": "inactive: 0"}, {"target": "TARSL2 (UniProt A2RTX5)", "dose-dependent thermal stabilisation call": "active: 1"}, {"target": "TFG (UniProt Q92734)", "dose-dependent thermal stabilisation call": "inactive: 0"}, {"target": "TMEM97 (UniProt Q5BJF2)", "dose-dependent thermal stabilisation call": "inactive: 0"}, {"target": "TBXAS1 (UniProt P24557)", "dose-dependent thermal stabilisation call": "inactive: 0"}, {"target": "TOMM40 (UniProt O96008)", "dose-dependent thermal stabilisation call": "inactive: 0"}, {"target": "TMC8 (UniProt Q8IU68)", "dose-dependent thermal stabilisation call": "inactive: 0"}, {"target": "TMEM38B (UniProt Q9NVV0)", "dose-dependent thermal stabilisation call": "inactive: 0"}, {"target": "TBC1D23 (UniProt Q9NUY8)", "dose-dependent thermal stabilisation call": "inactive: 0"}, {"target": "TMEM214 (UniProt Q6NUQ4)", "dose-dependent thermal stabilisation call": "inactive: 0"}, {"target": "TNPO1 (UniProt Q92973)", "dose-dependent thermal stabilisation call": "inactive: 0"}, {"target": "TFIP11 (UniProt Q9UBB9)", "dose-dependent thermal stabilisation call": "inactive: 0"}, {"target": "TMEM147 (UniProt Q9BVK8)", "dose-dependent thermal stabilisation call": "inactive: 0"}, {"target": "TMEM135 (UniProt Q86UB9)", "dose-dependent thermal stabilisation call": "inactive: 0"}, {"target": "TMEM85 (UniProt Q5J8M3)", "dose-dependent thermal stabilisation call": "inactive: 0"}, {"target": "TBL3 (UniProt Q12788)", "dose-dependent thermal stabilisation call": "inactive: 0"}, {"target": "TM7SF2 (UniProt O76062)", "dose-dependent thermal stabilisation call": "inactive: 0"}, {"target": "TIMM8A (UniProt O60220)", "dose-dependent thermal stabilisation call": "inactive: 0"}, {"target": "THOC1 (UniProt Q96FV9)", "dose-dependent thermal stabilisation call": "inactive: 0"}, {"target": "TBCA (UniProt O75347)", "dose-dependent thermal stabilisation call": "inactive: 0"}, {"target": "TBPL1 (UniProt P62380)", "dose-dependent thermal stabilisation call": "inactive: 0"}, {"target": "TANC2 (UniProt Q9HCD6)", "dose-dependent thermal stabilisation call": "inactive: 0"}, {"target": "TM7SF3 (UniProt Q9NS93)", "dose-dependent thermal stabilisation call": "active: 1"}, {"target": "TAP2 (UniProt Q03519)", "dose-dependent thermal stabilisation call": "inactive: 0"}, {"target": "TCEB2 (UniProt Q15370)", "dose-dependent thermal stabilisation call": "inactive: 0"}, {"target": "TIMM17B (UniProt O60830)", "dose-dependent thermal stabilisation call": "inactive: 0"}, {"target": "TNPO2 (UniProt O14787)", "dose-dependent thermal stabilisation call": "inactive: 0"}, {"target": "TMEM111 (UniProt Q9P0I2)", "dose-dependent thermal stabilisation call": "inactive: 0"}, {"target": "TMED1 (UniProt Q13445)", "dose-dependent thermal stabilisation call": "inactive: 0"}, {"target": "TPCN1 (UniProt Q9ULQ1)", "dose-dependent thermal stabilisation call": "inactive: 0"}, {"target": "TEX2 (UniProt Q8IWB9)", "dose-dependent thermal stabilisation call": "inactive: 0"}, {"target": "TAF8 (UniProt Q7Z7C8)", "dose-dependent thermal stabilisation call": "inactive: 0"}, {"target": "TIPRL (UniProt O75663)", "dose-dependent thermal stabilisation call": "inactive: 0"}]}]}
